From US20080306114A1, “Human G Protein-Coupled Receptor and Modulators Thereof for the Treatment of Hyperglycemia and Related Disorders” (Arena Pharmaceuticals, Inc, priority 2004, published 2008)
At least one structure is not confirmed: it was looked up by name or label, or the drawing left a doubt.

Tested on: Male Zucker diabetic fatty (ZDF) rats
Experiment: Acute response of ZDF rats to RUP43 agonist
Type: in vivo, rat
Conditions: fed state, intraperitoneal, RSG 10 mg/kg

For `CN(CCOc1ccc(CC2SC(=O)NC2=O)cc1)c1ccccn1` (stereo not shown) [RSG, rosiglitazone], the “blood glucose levels compared to vehicle control” value was “significantly reduce glucose levels”.
